PubChem BioAssay AID504744, Drosophila RNAi Screening Center, 2011
Screen: 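Uncover factors, including feedback loops, that control dAkt activation in fly cells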 (primary screen). Cell system: Drosophila Kc167 cells. Reagent: long dsRNA against Drosophila genes, 250 ng dsRNA per well of a 384-well plate. Duration: 3 days of knock-down, then overnight serum-free starvation before stimulation. Conditions: bovine insulin at 387 nM for 10 minutes after 12 h without serum. Measured: 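In-cell antibody fluorescence for phospho-dAkt in each well over DNA-dye signal, with log2 residuals expressed as z-scores adjusted for cell count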. Rule for the call: 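Hit in the insulin screen when the two-replicate mean z-score is more extreme than plus or minus 2.5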.
The deposit covers about 23,000 reagents; below is a random part of those that have a named target and a result. Over the whole deposit, 98 (0.43%) got an active call. 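Only hit calls are given; the phospho-dAkt signals, z-scores and hit direction were not deposited.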 The numbers tell different reagents against one gene apart. A plus sign joins genes that one reagent is predicted to hit.

Gene,dsRNA no.,activity call
CG15773,1,inactive
Dyrk2 (Dual-specificity tyrosine phosphorylation-regulated kinase 2),1,inactive
RhoGAP100F (Rho GTPase activating protein at 100F),1,inactive
fne (found in neurons),1,inactive
fne (found in neurons),2,inactive
Tim8,1,inactive
CG7164,1,inactive
CG31688,1,inactive
Hacd1 (3-hydroxyacyl-CoA dehydratase 1),1,inactive
nyo (nyobe),1,inactive
nyo (nyobe),2,inactive
sim (single-minded),1,inactive
l(2)09851 (lethal (2) 09851),1,inactive
"mAChR-B (muscarinic Acetylcholine Receptor, B-type)",1,inactive
CG11257,1,inactive
Cyt-c1 (Cytochrome c1),1,inactive
trv (trivet),1,inactive
trv (trivet),2,inactive
trv (trivet),3,inactive
trv (trivet),4,inactive
CG15330,1,inactive
CG31556 (retired record),1,inactive
CG31556 (retired record),2,inactive
TwdlW (TweedleW),1,inactive
p53,1,inactive
Nfs1 (Nfs1 cysteine desulfurase),1,inactive
CG43736 + CG33692 (retired record),1,inactive
CG43736 + CG33692 (retired record),2,inactive
Pep (Protein on ecdysone puffs),1,inactive
nahoda,1,inactive
nahoda,2,inactive
CG6409,1,inactive
CG6409,2,inactive
S-Lap3 (Sperm-Leucylaminopeptidase 3),1,inactive
CG42369,1,inactive
ey (eyeless),1,inactive
RPA2 (Replication protein A2),1,inactive
CG9010,1,inactive
Sara (Smad anchor for receptor activation),1,inactive
Taf5 (TBP-associated factor 5),1,inactive
Ctf4 (Chromosome transmission fidelity 4),1,inactive
Pgant5 (Polypeptide N-Acetylgalactosaminyltransferase 5),1,inactive
CG15570,1,inactive
CR31846 (retired record),1,inactive
CG17294,1,inactive
Tsp97E (Tetraspanin 97E),1,inactive
Lerp (lysosomal enzyme receptor protein),1,inactive
Lerp (lysosomal enzyme receptor protein),2,inactive
Lerp (lysosomal enzyme receptor protein),3,inactive
Lerp (lysosomal enzyme receptor protein),4,inactive
CG13096,1,inactive
ppk9 (pickpocket 9),1,inactive
ppk9 (pickpocket 9),2,inactive
dpr18 (defective proboscis extension response 18),1,inactive
CG6472,1,inactive
CG34039,1,inactive
CG2291,1,inactive
Ccp84Ac,1,inactive
Dhc1 (Dynein heavy chain 1),1,inactive
CG34433,1,inactive
yellow-d2,1,inactive
Fad2,1,inactive
CG12024,1,inactive
Cad87A (Cadherin 87A),1,inactive
CG14346,1,inactive
yata,1,inactive
Cortactin,1,inactive
MED30 (Mediator complex subunit 30),1,inactive
CG31949,1,inactive
CatB (Catalase B),1,inactive
CG33308,1,inactive
CG42490 (retired record),1,inactive
PH4alphaSG2 (prolyl-4-hydroxylase-alpha SG2),1,inactive
fu (fused),1,inactive
dbf (doublefault),1,inactive
dare (defective in the avoidance of repellents),1,inactive
CG8547,1,inactive
CG32260,1,inactive
Prx4 (Peroxiredoxin 4),1,inactive
CG15332,1,inactive
SLC5A11 (Sodium/solute co-transporter-like 5A11),1,inactive
CG12436 (retired record),1,inactive
CG12436 (retired record),2,inactive
Inx7 + cm,1,inactive
Parp16 (Poly(ADP-ribose) polymerase 16),1,inactive
Grip (Glutamate receptor interacting protein),1,inactive
Grip (Glutamate receptor interacting protein),2,inactive
CG15073,1,inactive
CG13157,1,inactive
snky (sneaky),1,inactive
CG1690,1,inactive
CG7872,1,inactive
CG6136,1,inactive
CG8526,1,inactive
Tlk (Tousled-like kinase),1,inactive
Tlk (Tousled-like kinase),2,inactive
Tlk (Tousled-like kinase),3,inactive
Tlk (Tousled-like kinase),4,inactive
Tlk (Tousled-like kinase),5,inactive
Jwa,1,inactive
CG32212 + hpRNA:CR33940,1,inactive
rpr (reaper),1,inactive
Fsn (F-box synaptic protein),1,inactive
COX5A (Cytochrome c oxidase subunit 5A),1,inactive
Nlg1 (Neuroligin 1),1,inactive
Nlg1 (Neuroligin 1),2,inactive
Nlg1 (Neuroligin 1),3,inactive
Nlg1 (Neuroligin 1),4,inactive
psq (pipsqueak),1,inactive
E2f2 (E2F transcription factor 2),1,inactive
CG15695,1,inactive
CG34199,1,inactive
Ir7a (Ionotropic receptor 7a),1,inactive
CG15167,1,inactive
CG7272,1,inactive
CG14369,1,inactive
CG34273,1,inactive
Tre1 (Trapped in endoderm 1),1,inactive
CG5543,1,inactive
CG1951,1,inactive
senju,1,inactive
CG18130,1,inactive
BomS5 (Bomanin Short 5),1,inactive
Npc2g (Niemann-Pick type C-2g),1,inactive
"ATPsynD (ATP synthase, subunit D)",1,inactive
Incenp (Inner centromere protein),1,inactive
Incenp (Inner centromere protein),2,inactive
CG13408,1,inactive
CG13408,2,inactive
PCB (Pyruvate carboxylase),1,inactive
CG11458,1,inactive
Vha36-2 (Vacuolar H[+] ATPase 36kD subunit 2),1,inactive
CG15225,1,inactive
CG31809,1,inactive
CG42694,1,inactive
CG11550,1,inactive
Had1 (beta Hydroxy acid dehydrogenase 1),1,inactive
Elal (Elastin-like),1,inactive
Cyt-c-d (Cytochrome c distal),1,inactive
Osi17 (Osiris 17),1,inactive
Ir52b (Ionotropic receptor 52b),1,inactive
ogre (optic ganglion reduced),1,inactive
blanks,1,inactive
spen (split ends),1,inactive
ckd (cracked),1,inactive
Ube4A (Ubiquitination factor E4A),1,inactive
Polr1E (RNA polymerase I subunit E),1,inactive
Polr1E (RNA polymerase I subunit E),2,inactive
CG9393,1,inactive
Rpn10 (Regulatory particle non-ATPase 10),1,inactive
Ttc26 (Tetratricopeptide repeat domain 26),1,inactive
Mdh2 (retired record),1,inactive
mRpL10 (mitochondrial ribosomal protein L10),1,inactive
Trm7-32 (tRNA methyltransferase 7-32),1,inactive
CG1542,1,inactive
Gprk2 (G protein-coupled receptor kinase 2),1,inactive
Sf3b6 (Splicing factor 3b subunit 6),1,inactive
Vmat (Vesicular monoamine transporter),1,inactive
Vmat (Vesicular monoamine transporter),2,inactive
Vmat (Vesicular monoamine transporter),3,inactive
Coq4 + frc,1,inactive
Coq4 + frc,2,inactive
Vps39 (Vacuolar protein sorting 39),1,inactive
CG42656,1,inactive
Nhe2 (Na[+]/H[+] hydrogen exchanger 2),1,inactive
Nhe2 (Na[+]/H[+] hydrogen exchanger 2),2,inactive
CG13872,1,inactive
CG30492 (retired record) + M7BP,1,inactive
CG30492 (retired record) + M7BP,2,inactive
CG30492 (retired record) + M7BP,3,inactive
CG30492 (retired record) + M7BP,4,inactive
CG30492 (retired record) + M7BP,5,inactive
CG33098,1,inactive
Noc1 (Nucleolar complex protein 1),1,inactive
Trpml + CG42638,1,inactive
ERR (estrogen-related receptor),1,inactive
CG11425,1,inactive
Usp39 (Ubiquitin specific protease 39),1,inactive
CG3769,1,inactive
CG6931,1,inactive
snRNP-U1-C (small ribonucleoprotein particle U1 subunit C),1,inactive
CG3916,1,inactive
CG31142,1,inactive
sima (similar),1,inactive
CG18599,1,inactive
CG18599,2,inactive
robl37BC,1,inactive
Srg1 (Sting-regulated gene 1),1,inactive
CR14033 (pseudo),1,inactive
CG34325,1,inactive
CG34325,2,inactive
CG8661,1,inactive
CG13999,1,inactive
CG15345 (retired record),1,inactive
CG15345 (retired record),2,inactive
Cht2 (Chitinase 2),1,inactive
Crg-1 (Circadianly Regulated Gene),1,inactive
sut4 (sugar transporter 4),1,inactive
ArgRS (Arginyl-tRNA synthetase),1,active
Mpc1,1,inactive

Copied from the entries so far for reference:
Gene,dsRNA no.,activity call
senju,1,inactive
CG18130,1,inactive
BomS5 (Bomanin Short 5),1,inactive
Npc2g (Niemann-Pick type C-2g),1,inactive
"ATPsynD (ATP synthase, subunit D)",1,inactive
Incenp (Inner centromere protein),1,inactive
Incenp (Inner centromere protein),2,inactive
CG13408,1,inactive
CG13408,2,inactive
PCB (Pyruvate carboxylase),1,inactive
CG11458,1,inactive
Vha36-2 (Vacuolar H[+] ATPase 36kD subunit 2),1,inactive
CG15225,1,inactive
CG31809,1,inactive
CG42694,1,inactive
CG11550,1,inactive
Had1 (beta Hydroxy acid dehydrogenase 1),1,inactive
Elal (Elastin-like),1,inactive
Cyt-c-d (Cytochrome c distal),1,inactive
Osi17 (Osiris 17),1,inactive
Ir52b (Ionotropic receptor 52b),1,inactive
ogre (optic ganglion reduced),1,inactive
blanks,1,inactive
spen (split ends),1,inactive
ckd (cracked),1,inactive
Ube4A (Ubiquitination factor E4A),1,inactive
Polr1E (RNA polymerase I subunit E),1,inactive
Polr1E (RNA polymerase I subunit E),2,inactive
CG9393,1,inactive
Rpn10 (Regulatory particle non-ATPase 10),1,inactive
Ttc26 (Tetratricopeptide repeat domain 26),1,inactive
Mdh2 (retired record),1,inactive
mRpL10 (mitochondrial ribosomal protein L10),1,inactive
